Measurements: paper PMC12080252, “Daphnia magna as an Alternative Model for (Simultaneous) Bioaccumulation and Chronic Toxicity Assessment—Controlled Exposure Study Indicates High Hazard of Heterocyclic PAHs” (Environmental Science & Technology, 2025)

The compounds below were run on Daphnia magna (assay: Bioaccumulation test (growth, uptake, depuration; adapted from OECD 305) with passive dosing). Settings: slope of ln wet weight vs time.
Type: in vivo
Experimental: Bioaccumulation tests with D. magna were adapted from OECD guideline 305 (for fish).[27] Each compound was tested using 110 animals: 10 for controls and 100 for chemical exposure. The animals, aged 10 days to limit growth dilution and provide sufficient tissue for analysis, were exposed to a single subtoxic concentration of each chemical. The test included three phases: (i) growth, (ii) uptake, and (iii) depuration. A combined chronic toxicity and bioaccumulation test was also conducted in a minimized version (section 2.6).
Ten days before exposure, 110 juvenile daphnids (<24 h old) were collected from the stock culture and grown in M4 medium. Due to the large number of animals required for this test, the volume of media and amount of food provided to the Daphnia were reduced for experimental feasibility. This was achieved by maintaining a denser population (20 mL medium/daphnid), as well as less food (D. subspicatus equivalent to 0.1 mg C/daphnid/day) compared to the stock culture yet still within the limits allowed by OECD 211. Other dietary supplements (fish food and spirulina) and physical conditions (temperature, light/dark cycle) were the same as the stock culture.
Before exposure started, 2 L of M4 medium containing D. subspicatus at a density sufficient for 100 daphnids for 5 days (25 mg C L^–1) was dosed with the test substance by shaking with 24 PDMS disks for 72 h. For controls (10 animals), 200 mL of M4 medium containing D. subspicatus ([…]) was equilibrated with 2 disks loaded with pure methanol. Immediately before the start of exposure phase, 10-day old daphnids were transferred to fresh medium for 1 h to clean their guts. […]
50 animals were first transferred to fresh medium for 15 min to remove exposure solution from their surface, and then placed in a new clean medium for the depuration phase. […] Control animals and their medium were analyzed at the end of both the uptake and depuration phases (5 animals each).
For quantification of body burdens, 5 daphnids were thawed, homogenized in 5 mL Milli-Q water (IKA T-25 digital Ultra-TURRAX) and extracted twice with 2 mL of hexane. […]
The depuration rate constant (k2) was derived by plotting the natural logarithm of CD against time ([h]), with the slope giving k2 (Figure S3).[27] The growth rate constant (kg) was determined from the slope of the regression line in the plot of ln (D. magna wet weight) versus time, and the growth-corrected depuration rate constant (k2g) was calculated using eq 4. […]
The bioaccumulation factor (BAF*) was calculated, even though steady-state was not reached. […]

SMILES | kg (growth rate constant)
c1ccc2c(c1)ccc1sc3ccccc3c12 [BNT, benzo[b]naphtho[1,2-d]thiophene] | 0.0017 h⁻¹
c1ccc2c(c1)ccc1[nH]c3ccccc3c12 [BCRB, 7H-benzo[c]carbazole] | 0.0019 h⁻¹
c1ccc2c(c1)ccc1oc3ccc4ccccc4c3c12 [DNF, dinaphtho[2,1-b:1′,2′-d]furan] | 0.0024 h⁻¹
c1ccc2c(c1)ccc1oc3ccccc3c12 [BNF, benzo[b]naphtho[1,2-d]furan] | 0.0032 h⁻¹

Each compound was assayed on Daphnia magna (assay: Chronic reproduction toxicity test (OECD 211) with passive dosing). Settings: from EA50 and CTLBB.
Type: in vivo
Experimental: Chronic toxicity tests with D. magna were performed according to the OECD guideline 211^2 using the passive dosing method. Two days before the tests, the exposure solution was predosed by shaking 10 PDMS disks loaded with the test substance in 1 L of medium for 48 h. Each test vessel (250 mL) was first flushed with the dosed solution to equilibrate the vessel walls, then filled with 100 mL of test solution, one PDMS disk, and one juvenile D. magna (<24 h old). The tests were conducted in loosely closed bottles to allow for adequate gas exchange and limit evaporation. The exposure medium was changed three times per week, and the animals were fed D. subspicatus daily (0.2 mg C/Daphnia/day). The number of offspring per adult and behavioral or physiological effects (e.g., size, movement, unhatched eggs) were recorded daily (except weekends). Dissolved oxygen, pH and temperature were also measured each week.
Tests were performed under static conditions (20 °C, 16:8 h light/dark cycle, 1 klux). Each compound was tested in 10 replicates for controls and limit tests (a single high concentration exposure to screen for significant toxic effects) and with 6 or 10 replicates for concentration–response tests. Reuse of silicone disks was included in some experiments (Table S3). Reproductive inhibition was assessed by counting offspring over 21 days. The number of offspring per mother in treatment groups was compared to controls, and the percent inhibition per replicate was used to generate concentration–response curves. A minimum of five concentrations per compound were tested to determine EC10, EC20, and EC50 values. For each test, three sets of polymers were rotated between loading, dosing, and exposure stages (Figure S2). Initial (before animal and food addition) and final (after 2–3 days of exposure, just before the medium change) water concentrations (CW) were monitored, with the latter collected after centrifugation to remove biomass (e.g., algae, carapaces, or feces).
All data are presented as average ± standard deviation. Student’s t test was used to analyze significance (p-value >0.05 considered insignificant). Concentration–response curve parameters (effective concentrations and confidence limits) and plots were generated using GraphPad Prism software (V6.01, GraphPad Software, La Jolla, CA, USA). The exposure concentrations were log10 transformed before fitting. Then a four parameters logistic model with variable slope was used to obtain EC10, EC20 and EC50 (see section S5 in SI file for details). Effective chemical activities (EA50) for chronic toxicity were calculated as follows: [drawing 1] 1 […]
S5. Concentration-response curve (CRC) fitting procedure
GraphPad Prism version 9.5.1 was used to fit CRC and obtain EC10, EC20, EC50 values and their confidence intervals. […]

SMILES | Mode of action
c1ccc2c(c1)ccc1sc3ccccc3c12 [BNT, benzo[b]naphtho[1,2-d]thiophene] | baseline toxicity
c1ccc2c(c1)ccc1[nH]c3ccccc3c12 [BCRB, 7H-benzo[c]carbazole] | baseline toxicity
c1ccc2c(c1)ccc1oc3ccc4ccccc4c3c12 [DNF, dinaphtho[2,1-b:1′,2′-d]furan] | baseline toxicity
c1ccc2c(c1)ccc1oc3ccccc3c12 [BNF, benzo[b]naphtho[1,2-d]furan] | baseline toxicity
